Source: the supplement of paper PMC5662767
Structures can show the parent of a compound that is named as a salt. Some of the results follow. Baselines shift from plate to plate; read single values as rough.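 A clonal Drosophila S2 line expresses Smoothened bearing circularly permuted GFP in its cytoplasmic tail; Hh-driven phosphorylation opens an inhibitory loop, making it fluoresce. Flow cytometry measured per-cell fluorescence, normalized to Hh-stimulated untreated cells. Hits were inhibitor groups with shared pathway targets that consistently shifted fluorescence, not individual compounds.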

Test system: Drosophila S2 cl14 SmoIP sensor cells
Assay: normalized SmoIP GFP fluorescence (untreated unstimulated = 0%, untreated Hh-stimulated = 100%); higher = more Smo activation sensor fluorescence
Conditions: compound concentration: 15 uM, 24 h
[1] = stimulation: Hh conditioned medium (+Hh)
[2] = stimulation: mock conditioned medium (-Hh)

| SMILES | normalized SmoIP GFP fluorescence [1] [%] | normalized SmoIP GFP fluorescence [2] [%] |
| --- | --- | --- |
| Cn1ncnc1[C@H]1c2n[nH]c(=O)c3cc(F)cc(c23)N[C@@H]1c1ccc(F)cc1 | 106 | -1.74 |
| CN1CCC[C@@H]1Cc1c[nH]c2ccc(CCS(=O)(=O)c3ccccc3)cc12 [eletriptan-hydrobromide] | 124 | 4.79 |
| O=C(NNc1ccccc1)c1ccncc1 | 117 | -0.662 |
| C=CC(=O)Nc1ccc2ncnc(Nc3cccc(Br)c3)c2c1 | 194 | 46.9 |
| Cc1cc(C(C)Nc2ccccc2)c2nc(N3CCOCC3)cc(=O)n2c1 (stereo not drawn) | 154 | 32.6 |
| CCOC(=O)N1CCC(=C2c3ccc(Cl)cc3CCc3cccnc32)CC1 [Loratadine] | 158 | 34.9 |
| CCC(=O)Nc1cccc(Oc2nc(Nc3ccc(N4CCN(C)CC4)cc3OC)ncc2Cl)c1 | 113 | 5.59 |
| O=P(O)(O)C(O)(Cn1ccnc1)P(=O)(O)O [Zoledronic-Acid] | 132 | 4.8 |
| Nc1nc(N)c2nc(-c3cccc(O)c3)c(-c3cccc(O)c3)nc2n1 | 126 | -2.64 |
| CC[C@H]1OC(=O)[C@H](C)[C@@H](O[C@H]2C[C@@](C)(OC)[C@@H](O)[C@H](C)O2)[C@H](C)[C@@H](O[C@@H]2O[C@H](C)C[C@H](N(C)C)[C@H]2O)[C@](C)(OC)C[C@@H](C)C(=O)[C@H](C)[C@@H](O)[C@]1(C)O [clarithromycin] | 146 | -2.82 |
| Cn1cc(-c2ccc3nnc(C(F)(F)c4ccc5ncccc5c4)n3n2)cn1 | 134 | 9.86 |
| CC(=O)/N=c1/sc(S(N)(=O)=O)nn1C [methazolamide] | 128 | 1.1 |
| CN1CCc2c(c3ccccc3n2Cc2ccc(C(=O)NO)cc2)C1 [tubastatin-a] | 108 | 0.986 |
| COc1ccc(-c2nc3ccc(C4=NNC(=O)CC4C)cc3[nH]2)cc1 (stereo not drawn) [Pimobendan(Vetmedin)] | 238 | 51.7 |
| CC1(C)CC(=O)c2c(C(F)(F)F)nn(-c3ccc(C(N)=O)c(N[C@H]4CC[C@H](OC(=O)CN)CC4)c3)c2C1 | 270 | 59.4 |
| CNC(=O)c1ccc2cc([C@@]3(O)CCn4cncc43)ccc2c1 | 164 | 24.6 |
| Cc1ccc(NC(=O)c2cccc(N(C)C)c2)cc1NC(=O)c1ccc(O)cc1 | 106 | -11.7 |

Shown with tabs: 3 of the compounds above.
SMILES	normalized SmoIP GFP fluorescence [1] [%]	normalized SmoIP GFP fluorescence [2] [%]
CN1CCC[C@@H]1Cc1c[nH]c2ccc(CCS(=O)(=O)c3ccccc3)cc12 [eletriptan-hydrobromide]	124	4.79
O=C(NNc1ccccc1)c1ccncc1	117	-0.662
C=CC(=O)Nc1ccc2ncnc(Nc3cccc(Br)c3)c2c1	194	46.9

Next part

| SMILES | normalized SmoIP GFP fluorescence [1] [%] | normalized SmoIP GFP fluorescence [2] [%] |
| --- | --- | --- |
| CC(C)(C)Cn1c(N)nc2ccc(-c3[nH]c(C(C)(C)C)nc3-c3ccc(F)cc3)nc21 | 154 | 78.8 |
| C[C@H](NC(=O)[C@@H](O)c1cc(F)cc(F)c1)C(=O)N[C@@H]1C(=O)N(C)c2ccccc2-c2ccccc21 | 116 | -12.7 |
| COc1cc2ncnc(Nc3ccc(F)c(Cl)c3)c2cc1OCCCN1CCOCC1 [Gefitinib] | 230 | 86.4 |
| CCOc1ccc(Cc2cc([C@@H]3O[C@H](CO)[C@@H](O)[C@H](O)[C@H]3O)ccc2Cl)cc1 [Dapagliflozin] | 120 | -1.88 |
| CCN(CC)C(=O)/C(C#N)=C/c1cc(O)c(O)c([N+](=O)[O-])c1 [entacapone] | 158 | 12.7 |
| COc1ccnc2[nH]cc(C(=O)C(=O)N3CCN(C(=O)c4ccccc4)C[C@H]3C)c12 | 127 | -12.7 |
| CCC(C)(Oc1ccc(C2(c3ccc(OC(C)(CC)C(=O)O)cc3)CCCCC2)cc1)C(=O)O (stereo not drawn) [clinofibrate] | 134 | -12.6 |
| N#Cc1cc(CN2CCC(Nc3ncnc4sc(Cl)cc34)CC2)ccc1F | 174 | 5.38 |
| COC(=O)N1CCN(Cc2cccc(NC(=O)Nc3ccc(C)nc3)c2F)CC1 | 130 | -16.1 |
| C#CCN[C@@H]1CCc2ccccc21 [rasagiline-mesylate] | 131 | -21.2 |
| O=C(NC1CCOCC1)c1ccc(-c2cc(-c3c[nH]nc3-c3ccccn3)ccn2)cc1 | 176 | 19.4 |
| CC(C)(C)NC(=O)[C@H]1CC[C@H]2[C@@H]3CC[C@H]4NC(=O)C=C[C@]4(C)[C@H]3CC[C@]12C [Finasteride] | 52.4 | -8.78 |
| COc1cc(OC)c(NC(=O)Nc2cc(C)on2)cc1Cl | 149 | -6.16 |
| Nc1ccc(C(=O)Nc2cccc(-c3nc(N4CCOCC4)c4oc5ncccc5c4n3)c2)cn1 | 247 | 95.2 |
| O=C(Nc1cccc(Cl)c1)c1ccccn1 | 124 | -2.71 |
| CC1CCc2cc(F)cc3c(=O)c(C(=O)O)cn1c23 (stereo not drawn) [flumequine] | 113 | -3.05 |
| COc1cc([C@@H]2c3cc4c(cc3[C@@H](O[C@@H]3O[C@@H]5CO[C@@H](C)O[C@H]5[C@H](O)[C@H]3O)[C@H]3COC(=O)[C@H]23)OCO4)cc(OC)c1OP(=O)(O)O [Etopophos] | 203 | 55.3 |
